# Hit rate of the full screen: of about 320,000 compounds, about 620 (0.19%) were called active. Inconclusive results, whose numbers are uncertain, are shown with a selection of clear calls. No stated cut-off is given here; in the data, active means activation above about 80%; inconclusive means between about 30% and that limit; inactive means weaker than that.
# Protein sequences, listed by entry. Tags and fused reporters are not part of them.
# UniProt Q8NER1, whole entry, looked up: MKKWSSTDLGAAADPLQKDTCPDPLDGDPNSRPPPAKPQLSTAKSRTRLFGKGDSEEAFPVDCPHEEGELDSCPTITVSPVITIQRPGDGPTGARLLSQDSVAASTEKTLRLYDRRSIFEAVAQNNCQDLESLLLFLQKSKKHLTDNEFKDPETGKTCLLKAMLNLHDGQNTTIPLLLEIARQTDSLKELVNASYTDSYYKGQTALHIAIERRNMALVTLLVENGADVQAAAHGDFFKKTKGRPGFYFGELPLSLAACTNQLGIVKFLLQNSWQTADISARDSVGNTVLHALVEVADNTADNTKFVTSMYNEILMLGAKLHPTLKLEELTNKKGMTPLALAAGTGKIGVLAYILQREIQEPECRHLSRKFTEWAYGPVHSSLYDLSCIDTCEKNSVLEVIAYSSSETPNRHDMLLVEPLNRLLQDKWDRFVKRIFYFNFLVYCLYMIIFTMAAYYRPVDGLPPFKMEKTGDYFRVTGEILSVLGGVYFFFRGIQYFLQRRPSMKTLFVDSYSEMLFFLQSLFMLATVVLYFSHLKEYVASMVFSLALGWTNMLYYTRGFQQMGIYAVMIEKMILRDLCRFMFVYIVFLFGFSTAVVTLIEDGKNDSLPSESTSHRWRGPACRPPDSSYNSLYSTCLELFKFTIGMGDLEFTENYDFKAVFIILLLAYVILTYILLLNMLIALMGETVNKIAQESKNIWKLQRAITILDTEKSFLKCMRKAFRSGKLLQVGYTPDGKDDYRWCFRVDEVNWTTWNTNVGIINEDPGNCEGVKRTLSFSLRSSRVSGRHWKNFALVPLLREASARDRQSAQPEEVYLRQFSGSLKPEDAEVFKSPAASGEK
# Target: Transient receptor potential cation channel subfamily V member 1 (Homo sapiens) (UniProt Q8NER1)
# Assay: HTS Assay for Compounds that Act as Agonists of the Vanilloid Receptor 1; further: 0% is about no effect
# Conditions: TRPV1-expressing cells, Fluo-8 calcium influx, agonist mode; at 8.33 µM, stronger effect = higher value
# Summary of the method: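 Fluo-8 calcium influx in TRPV1-expressing cells, kinetic read (ex 480/em 520 nm). Compound added and read 3 min for agonist activity, followed by capsaicin at EC20 final and 2 min further read for enhancement.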
row,Compound,activation
1,Cc1cc(NC(=O)COC(=O)CCCOc2ccc(Cl)cc2C)no1,inactive: 16.8%
2,COc1ccc(C(=O)NCCSc2ccccc2)cc1,inconclusive: 46%
3,O=C(C1CCN(S(=O)(=O)c2cccs2)CC1)N1CCCCC1,inconclusive: 47.9%
4,O=C(CCCCCCN1C(=O)c2ccccc2C1=O)Nc1nccs1,inactive: 2.78%
5,CCOc1ccc(CCNC(=O)COC(=O)/C=C/c2ccco2)cc1OCC,inconclusive: 59.6%
6,Cc1ccc(NC2c3ncccc3C(=O)N2Cc2cccs2)cc1C (stereo not given),inconclusive: 34.7%
7,CC1CCCN(S(=O)(=O)c2ccc(NC(=O)CN3CCN(C)CC3)cc2)C1 (stereo not given),inactive: 1.59%
8,CCn1c(-c2ccc(C(C)(C)C)cc2)n[nH]c1=S,inconclusive: 38.2%
9,CCOC(=O)CN1N=C(c2ccc(Cl)s2)CSC1=O,inconclusive: 59.5%
10,Cc1cc(-c2ccc(C)c(S(=O)(=O)Nc3cc(C)on3)c2)on1,inactive: 0.972%
11,C=CCn1c(SCc2c(C)noc2C)nc2sc(C)c(C)c2c1=O,inconclusive: 47.7%
12,CC(=O)N1CCN(C(=S)NC(=O)c2ccc(S(=O)(=O)N3CCOCC3)cc2)CC1,inactive: 6.69%
13,CN(CC(=O)Nc1ccccc1Br)C(=O)c1cc2c(s1)CCCCC2,inconclusive: 30.4%
14,Fc1ccc(/C=N/NC(=S)Nc2ccc(Cl)cc2)cc1F,inconclusive: 36.6%
15,COc1c(C(=O)Nc2ccc(Cc3ccncc3)cc2)ccc2ccccc12,inconclusive: 72.5%
16,COC(=O)c1sccc1NC(=O)Nc1ccc(C)cc1,inconclusive: 46.2%
17,CCOC(=O)c1[nH]c2cc3c(cc2c1CCCN1C(=O)c2ccccc2C1=O)OCCO3,inconclusive: 40.9%
18,Cc1nnc(-c2ccc(N3CCCCCC3)c([N+](=O)[O-])c2)o1,inconclusive: 30.6%
19,CC(C)CCNC(=O)c1onc(CSc2nc3ccccc3[nH]2)c1C(=O)NCCC(C)C,inconclusive: 31.7%
20,O=C(CSc1ncc(C(F)(F)F)cc1Cl)N1CCN(S(=O)(=O)c2ccccc2)CC1,inconclusive: 36.7%
21,CCC1=C(OC(=O)N(CC)CC)N2C(=O)OC(=NCC3CC3)[C@]2(Cc2ccccc2)[C@H]2C1=CC[C@H]1C(=O)N(C)C(=O)[C@H]12,inconclusive: 42.5%
22,O=C(Nc1cccc(S(=O)(=O)N2CCCC2)c1)c1cc(=O)[nH]c2ccccc12,inactive: 3.56%
23,CCCCCC(=O)NC(NC(=S)N1CCOCC1)C(Cl)(Cl)Cl (stereo not given),active: 83.1%

row,Compound,activation
1,Fc1ccc(CSc2nc3ccccc3[nH]2)cc1,inconclusive: 37.2%
2,Cc1ccc(-c2nnc(Sc3nc4ccccc4o3)c3ccccc23)cc1,inactive: 11.3%
3,CC(C)c1ccc(NC2=CC(=O)CC(C)(C)C2)cc1,inconclusive: 53.3%
4,C=CCNC(=O)/C=C/c1ccc(C(C)C)cc1,inconclusive: 61.3%
5,CSc1cccc(NC(=O)Nc2ccccc2)c1,inconclusive: 41.7%
6,O=C(C1COc2ccccc2O1)N1CCN(S(=O)(=O)c2ccccc2)CC1 (stereo not given),inconclusive: 44.4%
7,CCN(CC(=O)Nc1ccc(NC(C)=O)cc1)C(=O)CCCOc1ccc(C(C)(C)C)cc1,inconclusive: 30.3%
8,CCN(CC)CCN(Cc1cc2cc(C)ccc2[nH]c1=O)C(=S)Nc1ccccc1,inconclusive: 55.5%
9,COCCCNc1ncnc2sc3c(c12)CCC(C)C3 (stereo not given),inconclusive: 41.6%
10,C/C(CC(=O)Nc1cc(C)ccn1)=N\NC(=O)c1cccc(C)c1,inconclusive: 32.6%
11,COc1ccc(-c2noc(CSc3nnc(Cc4ccccc4)n3-c3ccc(Cl)cc3)n2)cc1,inactive: 0.106%
12,COc1cccc(/C=C2\SC(=S)N(CCCC(=O)N3CCCCC3CCO)C2=O)c1 (stereo not given),inactive: 1.09%
13,COc1cccc(C2=NOC(C(=O)Nc3cc(C)nn3-c3ccccc3)C2)c1OC (stereo not given),inactive: 0.0904%
14,O=C(COC(=O)C12CC3CC(CC(Br)(C3)C1)C2)Nc1cccnc1Cl,inconclusive: 55%
15,COc1cc2c(cc1OC)C(COc1ccccc1OC)N(C(=O)C(C)(C)C)CC2 (stereo not given),inactive: 6.64%
16,COc1ccc(NC(=O)NCCCN2CCCC2=O)cc1,inactive: 5.61%
17,CC(=O)c1c(C)[nH]c(C(=O)Nc2ccc(F)cc2F)c1C,inactive: 2.51%
18,CCN(CC)S(=O)(=O)c1ccc(N=Nc2c(N)[nH]c(=O)[nH]c2=O)cc1,inactive: -1.49%
19,Cc1ccc2[nH]c3c(=O)n(Cc4ccncc4)cnc3c2c1,inactive: 2.17%
20,Cc1ccc(C)c(N(C(=O)c2snc(C(N)=O)c2N)C(C(=O)NCC2CCCO2)c2ccc(C)o2)c1 (stereo not given),inactive: 3.61%
21,COc1ccccc1NC(=O)COc1ccc(/C=N/n2cnnc2)cc1OC,inconclusive: 31.9%
22,CCn1c(O)c(/C=C/C=C/C=Nc2ccccc2)sc1=S,inactive: 2.38%
23,O=C1COc2ccc(C(=O)CSc3nnc(Cc4ccccc4)o3)cc2N1,inconclusive: 40.5%

row,Compound,activation
1,Nc1nc2ccccc2n1CCOc1ccccc1Cl,inactive: -1.84%
2,Cc1ccc(-n2nc(C(=O)N3CCOCC3)cc2-c2ccc(Cl)cc2)cc1,active: 89.1%
3,Cc1ccc(C(=O)CNc2cccc(Cl)c2)cc1,inconclusive: 35.6%
4,c1cncc(CSc2nnc(-c3cccnc3)n2Cc2ccco2)c1,inactive: 3.57%
5,COc1cccc(C(=O)NCCSCc2c(F)cccc2Cl)c1,inconclusive: 43.7%
6,Cc1nn(-c2ccccc2)c(N2CCCC2)c1/C=N/NC(=O)c1cc(-c2cccs2)nc2ccccc12,inactive: 2.79%
7,c1ccc(-c2nc3cc4ccccc4cc3[nH]2)nc1,inconclusive: 30.1%
8,O=c1ccc(/C=C/c2ccccc2)nn1Cc1ccc(Cl)cc1Cl,inactive: 1.07%
9,CCCc1cc(C(=O)OC)c(NC(=O)c2cc(C)on2)s1,inconclusive: 33.3%
10,O=C(Nc1ccc(OC(=O)c2cccs2)cc1)c1ccco1,inconclusive: 36.4%
11,Cc1cc(C)c(C#N)c(SCCS(=O)(=O)c2ccc(C(C)(C)C)cc2)n1,inconclusive: 34.1%
12,COc1cccc(/C=N/NC(=O)CNC(=O)COc2cccc(C)c2)c1O,inactive: 1.09%
13,CCCCn1nc2cc(C(=O)N[C@H](C)C3CCCCC3)ccc2c1OCC,inconclusive: 46.4%
14,CSc1ncccc1C(=O)Nc1nc2ccc(F)cc2s1,inconclusive: 60.3%
15,Cc1ccc(CN2C(=O)C(Cc3ccccc3)Nc3ncnc(N4CCCCC4)c32)cc1 (stereo not given),inconclusive: 64.6%
16,CC(Cc1cccnc1)NC(=O)c1cc(COc2ccc(F)cc2Cl)on1 (stereo not given),inactive: 3.54%
17,Cc1cc2ccccc2n1CCNC(=O)C(C)C,inconclusive: 45.2%
18,CCSc1ncc(Cl)c(C(=O)Nc2ccc(S(N)(=O)=O)cc2)n1,inconclusive: 40.3%
19,C=CCn1c(SC(C)C(=O)Nc2ccc(F)c(F)c2F)nnc1C1CC1 (stereo not given),inactive: 2.14%
20,CCCCNC(=S)NCc1ccc2[nH]c(C)cc2c1,inactive: 17.4%
21,O=C1c2ccccc2C(=O)N1CCCCN(C(=O)c1cc2ccccc2oc1=O)c1ccc(Cl)cc1,inactive: -1.68%
22,Cc1ccc(-n2nnc3c(=O)n(Cc4cccc(C)c4)cnc32)cc1,inconclusive: 40.1%
23,Cc1nn2c(NCc3ccccn3)cc(C(C)(C)C)nc2c1-c1ccccc1,inconclusive: 37%

# Of the compounds above, 15 have a Cl atom:
row,Compound,activation
1,Cc1cc(NC(=O)COC(=O)CCCOc2ccc(Cl)cc2C)no1,inactive: 16.8%
9,CCOC(=O)CN1N=C(c2ccc(Cl)s2)CSC1=O,inconclusive: 59.5%
14,Fc1ccc(/C=N/NC(=S)Nc2ccc(Cl)cc2)cc1F,inconclusive: 36.6%
20,O=C(CSc1ncc(C(F)(F)F)cc1Cl)N1CCN(S(=O)(=O)c2ccccc2)CC1,inconclusive: 36.7%
23,CCCCCC(=O)NC(NC(=S)N1CCOCC1)C(Cl)(Cl)Cl (stereo not given),active: 83.1%
11,COc1ccc(-c2noc(CSc3nnc(Cc4ccccc4)n3-c3ccc(Cl)cc3)n2)cc1,inactive: 0.106%
14,O=C(COC(=O)C12CC3CC(CC(Br)(C3)C1)C2)Nc1cccnc1Cl,inconclusive: 55%
1,Nc1nc2ccccc2n1CCOc1ccccc1Cl,inactive: -1.84%
2,Cc1ccc(-n2nc(C(=O)N3CCOCC3)cc2-c2ccc(Cl)cc2)cc1,active: 89.1%
3,Cc1ccc(C(=O)CNc2cccc(Cl)c2)cc1,inconclusive: 35.6%
5,COc1cccc(C(=O)NCCSCc2c(F)cccc2Cl)c1,inconclusive: 43.7%
8,O=c1ccc(/C=C/c2ccccc2)nn1Cc1ccc(Cl)cc1Cl,inactive: 1.07%
16,CC(Cc1cccnc1)NC(=O)c1cc(COc2ccc(F)cc2Cl)on1 (stereo not given),inactive: 3.54%
18,CCSc1ncc(Cl)c(C(=O)Nc2ccc(S(N)(=O)=O)cc2)n1,inconclusive: 40.3%
21,O=C1c2ccccc2C(=O)N1CCCCN(C(=O)c1cc2ccccc2oc1=O)c1ccc(Cl)cc1,inactive: -1.68%

# Looked up by compound from the list above, two records:
row,Compound,activation
15,Cc1ccc(CN2C(=O)C(Cc3ccccc3)Nc3ncnc(N4CCCCC4)c32)cc1 (stereo not given),inconclusive: 64.6%
14,CSc1ncccc1C(=O)Nc1nc2ccc(F)cc2s1,inconclusive: 60.3%

# Additional records.

row,Compound,activation
1,O=C(Nc1cccc(F)c1)c1ccc(-c2ccccc2C(F)(F)F)o1,inconclusive: 64.1%
2,CCN(CC)S(=O)(=O)c1ccc(C(C)NC(=O)Cc2c[nH]c3ccccc23)cc1 (stereo not given),inactive: 18.3%
3,Cc1cc(C(=O)N=Nc2c(O)n(C(C)C)c3ccccc23)n[nH]1,inactive: 0.506%
4,Fc1ccc(-c2nnc(-c3ccc(Cl)cc3)o2)cc1,inconclusive: 43.3%
5,O=C1c2cccc3c([N+](=O)[O-])ccc(c23)C(=O)N1c1ccc(Cl)cn1,inactive: 0.197%
6,NS(=O)(=O)c1cccc(NC(=O)CCSc2ccccc2Cl)c1,inconclusive: 73.4%
7,CSCCC(NC(=O)c1ccco1)C(=O)NCCc1ccc(F)cc1 (stereo not given),inactive: 0.184%
8,COc1cc(CNc2ccc3[nH]c(=O)[nH]c3c2)ccc1OCc1ccc(F)cc1,inconclusive: 41.3%
9,O=C(NC1CCCCC1)C(c1ccc(O)cc1)N(CC1CCCO1)C(=O)C1COc2ccccc2O1 (stereo not given),inconclusive: 36.9%
10,O=C(Nc1ccc(SC(F)F)cc1)C12CCC(CC1)C2,inconclusive: 59.2%
11,CCN(CC)CCOC(=O)c1ccc(N/C=C(/C#N)c2nc(-c3ccc4c(c3)OCO4)cs2)cc1,inactive: -2.51%
12,COc1ccc(OCC(=O)NC2CCCCCCC2)cc1,inconclusive: 44.7%
13,CCCCn1c(C(C)NC(=O)c2cccs2)nc2ccccc21 (stereo not given),inconclusive: 61.6%
14,CC(C)c1ccccc1-n1c(SCC(=O)c2ccc3c(c2)NC(=O)CO3)nc2ccccc2c1=O,inconclusive: 31.2%
15,O=C(NCCCNc1ccc([N+](=O)[O-])cc1Cl)c1ccccc1F,inconclusive: 41.2%
16,COc1cc(-c2nnc(SCC(=O)c3ccccc3)o2)cc(OC)c1OC,inconclusive: 41.1%
17,CCC(C)[C@H]1CNC(=S)N1CCC12CC3CC(CC(C3)C1)C2 (stereo not given in full),inconclusive: 40.3%
18,c1cc2c(cn1)cnc1cscc12,inactive: -3.21%
19,NS(=O)(=O)c1cccc(NC(=O)CC(NC(=O)c2ccccc2Cl)c2ccccc2)c1 (stereo not given),inconclusive: 34.6%
20,Cc1ccc(SCCNC(=O)c2ccc(C)c([N+](=O)[O-])c2)cc1,inconclusive: 68.2%
21,O=C(Nc1ccc2c(c1)OCO2)c1ccc(S(=O)(=O)N2CCCC2)cc1,inconclusive: 65.3%
